Results reported in publication PMC6283879, “Structural assembly of the megadalton-sized receptor for intestinal vitamin B12 uptake and kidney protein reabsorption” (Nature Communications, 2018).
Numbering of substitutions follows the chain as printed. These are yes or no findings as the source states them, for the method shown. In cells and extracts the contact can be indirect. Binding calls can cover weak binding; strength is not graded here. Tags and fused reporters may be left off the sequences shown.

Sequences of proteins named here, by UniProt entry; tags and fusion partners are left off. A change or cut given only in a name is not applied to a line headed by its entry.
UniProt O70244: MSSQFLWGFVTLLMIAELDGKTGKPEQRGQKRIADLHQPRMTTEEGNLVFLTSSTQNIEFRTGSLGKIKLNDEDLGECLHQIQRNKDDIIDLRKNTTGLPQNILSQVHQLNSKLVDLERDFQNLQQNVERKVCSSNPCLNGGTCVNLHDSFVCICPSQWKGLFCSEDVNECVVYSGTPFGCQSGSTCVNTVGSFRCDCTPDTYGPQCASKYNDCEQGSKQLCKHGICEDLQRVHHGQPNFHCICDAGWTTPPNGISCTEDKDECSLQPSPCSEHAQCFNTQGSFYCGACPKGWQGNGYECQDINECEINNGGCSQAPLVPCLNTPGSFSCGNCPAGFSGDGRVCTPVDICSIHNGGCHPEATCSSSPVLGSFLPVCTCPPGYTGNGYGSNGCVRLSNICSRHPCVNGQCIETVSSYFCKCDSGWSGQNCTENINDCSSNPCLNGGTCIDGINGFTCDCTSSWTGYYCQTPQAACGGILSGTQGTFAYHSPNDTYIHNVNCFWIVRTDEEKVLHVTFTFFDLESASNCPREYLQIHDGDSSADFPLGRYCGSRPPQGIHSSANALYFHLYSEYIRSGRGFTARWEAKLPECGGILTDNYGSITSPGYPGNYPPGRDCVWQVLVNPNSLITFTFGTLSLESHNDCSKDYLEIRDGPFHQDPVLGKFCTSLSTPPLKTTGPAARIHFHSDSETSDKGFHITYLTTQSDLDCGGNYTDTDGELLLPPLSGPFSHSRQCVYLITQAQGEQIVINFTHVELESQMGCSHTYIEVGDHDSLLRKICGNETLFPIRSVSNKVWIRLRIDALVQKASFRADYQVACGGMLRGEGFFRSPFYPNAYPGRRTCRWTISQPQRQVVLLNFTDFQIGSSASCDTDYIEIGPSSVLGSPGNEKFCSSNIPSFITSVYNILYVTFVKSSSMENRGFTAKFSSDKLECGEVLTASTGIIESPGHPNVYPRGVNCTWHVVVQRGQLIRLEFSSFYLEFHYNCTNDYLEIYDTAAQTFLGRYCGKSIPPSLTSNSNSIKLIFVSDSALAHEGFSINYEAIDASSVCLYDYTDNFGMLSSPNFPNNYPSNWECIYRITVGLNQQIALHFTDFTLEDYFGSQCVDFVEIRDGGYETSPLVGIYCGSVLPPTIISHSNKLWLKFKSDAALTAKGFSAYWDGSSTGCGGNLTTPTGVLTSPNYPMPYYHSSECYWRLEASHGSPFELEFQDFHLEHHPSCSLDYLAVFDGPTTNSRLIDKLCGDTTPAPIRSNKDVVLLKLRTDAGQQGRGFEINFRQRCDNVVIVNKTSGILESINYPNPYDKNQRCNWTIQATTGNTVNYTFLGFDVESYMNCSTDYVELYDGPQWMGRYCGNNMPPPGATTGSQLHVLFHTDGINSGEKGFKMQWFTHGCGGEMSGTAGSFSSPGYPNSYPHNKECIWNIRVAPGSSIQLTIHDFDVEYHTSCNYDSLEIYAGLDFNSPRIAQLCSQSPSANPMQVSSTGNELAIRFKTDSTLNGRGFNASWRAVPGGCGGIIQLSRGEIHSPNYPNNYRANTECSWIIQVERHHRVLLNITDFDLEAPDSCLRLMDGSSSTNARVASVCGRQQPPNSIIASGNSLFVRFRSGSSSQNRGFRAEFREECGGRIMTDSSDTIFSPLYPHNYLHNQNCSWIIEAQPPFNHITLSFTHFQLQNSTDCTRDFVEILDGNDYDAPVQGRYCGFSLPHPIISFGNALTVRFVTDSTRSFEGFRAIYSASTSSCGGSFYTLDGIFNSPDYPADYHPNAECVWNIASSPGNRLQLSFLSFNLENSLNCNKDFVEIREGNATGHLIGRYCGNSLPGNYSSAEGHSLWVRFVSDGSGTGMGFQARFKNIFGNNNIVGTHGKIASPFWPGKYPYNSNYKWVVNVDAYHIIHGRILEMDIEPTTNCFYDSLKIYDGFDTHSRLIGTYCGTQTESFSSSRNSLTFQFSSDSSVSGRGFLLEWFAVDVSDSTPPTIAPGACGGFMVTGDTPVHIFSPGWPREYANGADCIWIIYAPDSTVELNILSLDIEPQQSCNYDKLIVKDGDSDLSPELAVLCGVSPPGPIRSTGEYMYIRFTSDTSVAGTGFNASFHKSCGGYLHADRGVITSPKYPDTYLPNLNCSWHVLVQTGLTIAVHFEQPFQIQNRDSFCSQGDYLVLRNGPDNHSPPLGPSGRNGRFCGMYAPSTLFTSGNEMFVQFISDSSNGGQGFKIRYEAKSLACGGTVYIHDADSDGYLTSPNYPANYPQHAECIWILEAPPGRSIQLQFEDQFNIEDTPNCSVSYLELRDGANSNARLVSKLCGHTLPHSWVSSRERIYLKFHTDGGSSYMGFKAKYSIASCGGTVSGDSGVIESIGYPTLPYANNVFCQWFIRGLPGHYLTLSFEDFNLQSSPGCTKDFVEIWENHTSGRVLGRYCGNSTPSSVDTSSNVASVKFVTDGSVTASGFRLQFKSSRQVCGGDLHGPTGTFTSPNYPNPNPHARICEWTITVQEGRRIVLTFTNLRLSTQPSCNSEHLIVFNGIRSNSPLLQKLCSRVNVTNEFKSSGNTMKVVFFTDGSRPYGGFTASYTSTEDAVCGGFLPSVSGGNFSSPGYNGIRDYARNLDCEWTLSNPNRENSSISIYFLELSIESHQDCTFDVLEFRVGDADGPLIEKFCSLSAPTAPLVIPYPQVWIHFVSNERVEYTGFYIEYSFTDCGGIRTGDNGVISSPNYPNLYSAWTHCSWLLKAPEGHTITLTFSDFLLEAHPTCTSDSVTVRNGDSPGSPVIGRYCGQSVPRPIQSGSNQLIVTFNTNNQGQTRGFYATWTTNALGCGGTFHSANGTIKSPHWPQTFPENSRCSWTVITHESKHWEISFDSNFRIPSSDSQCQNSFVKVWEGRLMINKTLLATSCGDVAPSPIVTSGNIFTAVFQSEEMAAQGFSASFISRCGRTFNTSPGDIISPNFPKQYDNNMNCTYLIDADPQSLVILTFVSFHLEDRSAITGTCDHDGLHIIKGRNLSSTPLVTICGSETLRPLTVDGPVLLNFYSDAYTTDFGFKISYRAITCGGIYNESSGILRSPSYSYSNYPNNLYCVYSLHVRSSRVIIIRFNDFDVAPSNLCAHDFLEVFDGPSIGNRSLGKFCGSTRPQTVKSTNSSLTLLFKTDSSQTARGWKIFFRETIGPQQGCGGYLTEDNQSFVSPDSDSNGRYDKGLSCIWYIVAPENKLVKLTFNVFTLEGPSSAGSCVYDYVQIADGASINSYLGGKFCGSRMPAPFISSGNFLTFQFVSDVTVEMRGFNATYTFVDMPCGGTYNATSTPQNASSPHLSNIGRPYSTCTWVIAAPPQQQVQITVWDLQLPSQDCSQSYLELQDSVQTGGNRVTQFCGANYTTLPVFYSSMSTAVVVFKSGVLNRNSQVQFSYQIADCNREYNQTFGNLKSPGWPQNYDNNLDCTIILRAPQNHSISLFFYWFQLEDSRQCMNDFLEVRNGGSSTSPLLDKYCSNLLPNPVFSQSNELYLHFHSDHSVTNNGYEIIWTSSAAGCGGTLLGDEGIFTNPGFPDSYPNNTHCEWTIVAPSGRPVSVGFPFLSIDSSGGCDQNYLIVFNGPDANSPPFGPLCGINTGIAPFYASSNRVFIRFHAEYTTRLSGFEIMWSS

Key:
Assay in all cases: co-IP; CHO K1 cells co-transfected with cubilin(1–1389) and V5-tagged AMN; 1% Triton X-100 lysate in PBS pH 7.4; anti-V5 agarose beads, 2 hours at room temperature; blot with anti-rat cubilin and anti-V5
[1] = target: T1, V5-tagged AMN(1–454) T41I (human) (UniProt Q9BXJ7)
T1 sequence: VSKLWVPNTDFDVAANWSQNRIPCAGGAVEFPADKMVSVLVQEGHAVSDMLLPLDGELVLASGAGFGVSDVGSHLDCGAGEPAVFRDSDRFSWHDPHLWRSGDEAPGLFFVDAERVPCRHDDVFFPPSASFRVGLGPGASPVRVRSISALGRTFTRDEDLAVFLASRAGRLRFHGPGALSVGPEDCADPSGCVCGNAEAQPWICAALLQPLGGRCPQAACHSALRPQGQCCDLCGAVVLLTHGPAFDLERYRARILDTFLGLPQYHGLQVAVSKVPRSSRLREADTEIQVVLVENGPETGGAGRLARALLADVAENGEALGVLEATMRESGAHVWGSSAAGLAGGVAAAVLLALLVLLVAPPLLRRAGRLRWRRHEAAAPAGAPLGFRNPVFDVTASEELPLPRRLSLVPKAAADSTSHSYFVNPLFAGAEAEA

[2] = target: T2, V5-tagged AMN(1–454) S37A/T41I double mutant (human) (UniProt Q9BXJ7)
T2 sequence: T1 sequence with S18A

[3] = target: T3, V5-tagged AMN(1–454) S37A (human) (UniProt Q9BXJ7)
T3 sequence: T1 sequence with S18A, I22T

[4] = target: T4, V5-tagged AMN(1–454), wild type (human) (UniProt Q9BXJ7)
T4 sequence: T1 sequence with I22T

Measured: binding

cubilin (amino acids 1–1389) (from UniProt O70244) (domain or fragment)
binds: all assays above
